Results on two molecules are retold here after publication PMC10766520.

These are yes or no findings as the source states them, for the method shown. In cells and extracts the contact can be indirect. Some binding calls cover weakened binding; strength is not graded here. For some assays here: Where a sequence is shown, tags or fusion partners need not be part of it.

The target of one assay is T1, TGFBR3-FLAG (UniProt Q03167).
T1 sequence: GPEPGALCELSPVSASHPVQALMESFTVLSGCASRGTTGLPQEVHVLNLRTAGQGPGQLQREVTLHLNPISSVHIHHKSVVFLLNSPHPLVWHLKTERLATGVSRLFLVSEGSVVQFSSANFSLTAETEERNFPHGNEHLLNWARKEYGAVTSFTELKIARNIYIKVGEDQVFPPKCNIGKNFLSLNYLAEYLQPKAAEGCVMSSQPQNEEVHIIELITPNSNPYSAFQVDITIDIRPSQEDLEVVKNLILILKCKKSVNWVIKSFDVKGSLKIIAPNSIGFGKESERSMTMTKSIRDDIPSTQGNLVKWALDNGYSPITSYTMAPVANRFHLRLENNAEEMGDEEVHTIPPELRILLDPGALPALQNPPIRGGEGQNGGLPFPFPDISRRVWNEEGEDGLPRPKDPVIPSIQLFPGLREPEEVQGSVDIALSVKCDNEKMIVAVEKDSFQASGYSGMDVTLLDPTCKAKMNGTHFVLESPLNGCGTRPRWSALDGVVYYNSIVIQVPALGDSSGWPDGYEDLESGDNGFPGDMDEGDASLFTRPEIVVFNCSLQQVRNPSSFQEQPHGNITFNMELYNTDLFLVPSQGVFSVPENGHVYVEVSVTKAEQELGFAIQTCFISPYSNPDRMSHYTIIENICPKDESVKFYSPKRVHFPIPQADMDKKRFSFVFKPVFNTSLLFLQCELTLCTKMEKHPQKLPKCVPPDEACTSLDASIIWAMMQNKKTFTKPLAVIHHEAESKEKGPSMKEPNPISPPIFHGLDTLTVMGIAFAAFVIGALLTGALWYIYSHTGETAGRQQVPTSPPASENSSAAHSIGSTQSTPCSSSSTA
In words: co-IP; exogenous: 143B cell lysate (IP lysis buffer), antibodies against HA-tag or FLAG-tag with Protein A+G magnetic beads, 4 °C overnight, immunoblot.

Assay [1] addresses T2, TGFBR3, endogenous (human (endogenous in 143B)) (UniProt Q03167).
T2 sequence: T1 sequence
In words: co-IP; endogenous: 143B cell lysate (IP lysis buffer), antibodies against SDC4 or TGFBR3 with Protein A+G magnetic beads, 4 °C overnight, immunoblot.

B1: SDC4-HA (Syndecan-4, HA-tagged) (protein, UniProt P31431-1 19-198)
chain: ESIRETEVIDPQDLLEGRYFSGALPDDEDVVGPGQESDDFELSGSGDLDDLEDSMIGPEVVHPLVPLDNHIPERAGSGSQVPTEPKKLEENEVIPKRISPVEESEDVSNKVSMSSTVQGSNIFERTEVLAALIVGGIVGILFAVFLILLLMYRMKKKDEGSYDLGKKPIYKKAPTNEFYA
In the case of B1, the binding result in the assay with TGFBR3-FLAG is “binds”.

B2: SDC4 (Syndecan-4), endogenous (protein, UniProt P31431-1 19-198)
chain: B1 chain
Turning to B2, the binding entry in assay [1] was “binds”.
